Our source for the AC50 values is PubChem BioAssay AID1487 (National Center for Advancing Translational Sciences (NCATS), 2009).

The nature of the assay: qHTS Assay for Modulators of Lamin A Splicing. The following applies: HeLa LMNA splicing GFP/RFP minigene ratio, 48 h. In a few lines:
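Read-out is the ratio of GFP to DsRed2 object intensity, acquired by 488 nm laser-scanning cytometry on HeLa lamin A-EGFP minigene reporter cells. Compound incubation 48 hrs at 37 °C in Opti-MEM with 2% FBS; DMSO 0.5% final.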
On the technique in general: qHTS replaces the single test concentration by a dilution series.

The mark [1] stands for this setting: measured here: GFP splicing reporter channel.
The mark [2] stands for this setting: measured here: RFP viability control channel.

Some of the results follow. Further columns of the screen follow, without active or inactive calls. The list favours compounds with an active or inconclusive main result. Words in brackets tell the shape of the fitted curve; partial curves, single points and poor fits give uncertain potencies.

One may read the AC50 as the concentration at which the activity in the assay is half-maximal. On to `COc1ccc(C2C(CC(=O)O)=C(O)C(=O)N2c2ccccc2)cc1` (centres undefined), for which the half-maximal activity concentration (AC50) under setting [1] was 35.5 µM [rising, single point].
Consider `O=C(Nc1ccccc1)N1CCN(c2ccc(C(F)(F)F)cn2)CC1`, for which the half-maximal activity concentration (AC50) under setting [2] is 11.2 µM [rising, single point].
For the compound `O=C(CSc1nnc(-c2ccc(Br)cc2)n1-c1ccccc1)c1ccccc1`, the concentration at half-maximal activity (AC50) was 2 µM [falling, full curve, poor fit] under setting [1] and 15.8 µM [falling, partial curve, poor fit] under setting [2].
Consider `O=C(N/N=C/c1ccc(C(=O)O)cc1)C1=NNC(c2ccccc2)(c2ccccc2)C1`, for which the AC50 under setting [1] is 0.0355 µM [rising, full curve, poor fit].
Still for that read-out and setting: under `Cc1cc(NC(=O)CSc2nc(CCC3CCCC3)nc3ccccc23)no1` stands 22.4 µM [falling, single point].
In the case of `COc1ccc(C(=O)NCC(c2ccc3c(c2)OCO3)N2CCN(c3ccc(F)cc3)CC2)cc1` (centres undefined), under setting [1], the AC50 is 31.6 µM [falling, single point].
On to `Cc1ccc(-n2c(SCC(=O)NCC3CCCO3)nc3n[nH]c(C)c3c2=N)cc1Cl` (centres undefined), for which the AC50 under setting [2] was 12.6 µM [rising, single point].
For `COc1ccc(NC(=O)CSc2nccn2Cc2ccco2)c(OC)c1`, under setting [2], the concentration at half-maximal activity (AC50) is 10 µM [falling, partial curve, poor fit].
The same measure, in the same setting: in the case of `CCOC(=O)c1cc(-c2ccc(OC)cc2)n(CCC(=O)Nc2nc3ccc(OCC)cc3s2)c1C` it was 10 µM [falling, partial curve].
Take `CCOC(=O)c1c(C)sc(-c2c(-c3ccc(OC)c(F)c3)[nH]c3[nH]c(=O)[nH]c(=O)c23)c1O`: the AC50 under setting [1] is 0.282 µM [rising, full curve, poor fit].
As for `CCN(CC)C(=O)CSc1nc(-c2ccccc2)ccc1C#N`, under setting [2], the half-maximal activity concentration (AC50) was 35.5 µM [falling, single point].
With `Cc1cc(N/N=C/c2ccc(O)c(C)c2O)nc(-c2ccccc2O)n1`, the concentration at half-maximal activity (AC50) under setting [2] was 14.1 µM [rising, partial curve].
Consider `Cc1cccc(C)c1NC(=O)CC(NCCc1ccccc1)C(=O)O` (centres undefined), for which the AC50 was 5.01 µM [rising, full curve, poor fit] under setting [1] and 6.31 µM [rising, full curve, poor fit] under setting [2].
Turning to `Cc1cc(=O)[nH]c2ccc(Cl)cc12`, the concentration at half-maximal activity (AC50) under setting [2] was 11.2 µM [falling, partial curve, poor fit].
Take `Cc1ccc(S(=O)(=O)Nc2ccc(Cl)cc2)cc1NC(=O)Cn1cnc2c1c(=O)n(C)c(=O)n2C`: the AC50 under setting [2] is 7.94 µM [rising, partial curve, poor fit].
With `COc1ccccc1CN1CCC(CNC(=O)c2cnn(-c3ccc(Cl)cc3)c2C2CCN(C(=O)OC(C)(C)C)CC2)CC1`, the concentration at half-maximal activity (AC50) by setting is: under setting [1], 15.8 µM [falling, partial curve]; under setting [2], 15.8 µM [falling, partial curve].
In the case of `O=C(NN1C(=O)C2C(C1=O)C1C=CC2C12CC2)c1ccncc1` (centres undefined), the AC50 is 6.31 µM [falling, single point] under setting [1] and 6.31 µM [falling, single point] under setting [2].
Turning to `COC(=O)c1oc2ccccc2c1NC(=O)CN1CCCC1`, the concentration at half-maximal activity (AC50) is, setting by setting: under setting [1], 0.0708 µM [rising, full curve, poor fit]; under setting [2], 0.0708 µM [rising, full curve, poor fit].
`Cc1ccc(Cn2ccc(NC(=O)c3nn(C)cc3[N+](=O)[O-])n2)cc1`: the AC50 under setting [2] was 5.01 µM [rising, partial curve, poor fit].
With `Cc1ccc(N=Nc2c(C)[nH][nH]c2=O)c(C)c1`, the concentration at half-maximal activity (AC50) under setting [1] was 11.2 µM [falling, single point] and the AC50 under setting [2] is 12.6 µM [falling, partial curve].
As to `O=C(N/N=C/c1ccc([N+](=O)[O-])s1)c1cccc(Br)c1`, the AC50 by setting is: under setting [1], 14.1 µM [falling, single point]; under setting [2], 35.5 µM [falling, single point].
In the case of `COc1ccc(CCN2C(=O)c3[nH]nc(-c4ccccc4O)c3C2c2ccccc2)cc1OC` (centres undefined), the concentration at half-maximal activity (AC50) under setting [1] is 12.6 µM [rising, single point] and the half-maximal activity concentration (AC50) under setting [2] is 15.8 µM [rising, single point].
`CN1C(=O)OC(C)(C)C1=O`: the half-maximal activity concentration (AC50) is 14.1 µM [falling, single point] under setting [1] and 14.1 µM [falling, single point] under setting [2].
With `CCN(Cc1ccccc1)C(=O)c1sc2nc3n(c(=O)c2c1C)CCCC3`, the AC50 was 0.224 µM [falling, full curve] under setting [1] and 0.708 µM [falling, partial curve, poor fit] under setting [2].
On to `COc1ccc(C2(CNC(=O)c3ccc(OC)c([N+](=O)[O-])c3)CCCCC2)cc1OC`, for which the AC50 under setting [2] was 12.6 µM [rising, partial curve].
Take `Cc1ccc(Nc2nnc(SCC3CCCCO3)s2)cc1` (centres undefined): under setting [2], the AC50 is 10 µM [rising, partial curve, poor fit].
Consider `CC1CCc2cc(F)ccc2N1C(=O)CSc1nnc2c(n1)[nH]c1ccccc12` (centres undefined), for which the AC50 by setting is: under setting [1], 10 µM [rising, single point]; under setting [2], 31.6 µM [rising, single point].
Regarding `Cc1ccc2nc(NC(=O)C3CCN(S(=O)(=O)c4cccnc4)CC3)sc2c1`, under setting [2], the half-maximal activity concentration (AC50) was 15.8 µM [rising, single point].
In the case of `CCOCCCN(Cc1ccco1)C(=O)c1cc2c(=O)[nH]c3ccc(C)cc3c2s1`, the AC50 under setting [1] is 20 µM [rising, single point].
Same read-out and setting: in the case of `N#Cc1ccc(N2Cc3ccccc3C2=NC(=O)c2cccnc2Cl)cc1` it was 0.00447 µM [falling, full curve, poor fit].
With `CCOC(=O)c1sc2nc[nH]c(=O)c2c1C`, under setting [2], the AC50 was 35.5 µM [rising, single point].
Regarding `Cc1cccc(Oc2ccc(C(=O)NC3CCSC3=O)cn2)c1C` (centres undefined), the AC50 is 35.5 µM [rising, single point] under setting [1] and 35.5 µM [rising, single point] under setting [2].
Regarding `CC(C)C(C)(C#N)NC(=O)CSc1nc2scc(-c3ccccc3)c2c(=O)[nH]1` (centres undefined), under setting [1], the AC50 was 11.2 µM [rising, single point].
For the compound `Cc1ccc(Cl)cc1N1CCN(C(=O)CN2C(=O)CSc3c2c(C)nn3-c2ccccc2)CC1`, the AC50 under setting [1] is 4.47 µM [falling, partial curve].
For the compound `O=C(CSc1ccc2c(c1)OCCO2)Nc1ccc2c(c1)OCO2`, the half-maximal activity concentration (AC50) under setting [2] was 35.5 µM [rising, single point].
`COc1cccc(NC(=O)c2cnc(SCC(=O)N3CCOCC3)n(C)c2=O)c1`: the half-maximal activity concentration (AC50) was 15.8 µM [falling, single point] under setting [1] and 35.5 µM [falling, single point] under setting [2].
On to `CNC(=S)N/N=C/c1cn(CCOc2cccc(OC)c2)c2ccccc12`, for which the AC50 reads like this: under setting [1], 12.6 µM [rising, single point]; under setting [2], 14.1 µM [rising, single point].
For the compound `COc1ccc(NC(=S)Nc2nc(CC(=O)Nc3ccccc3OC)cs2)cc1`, the AC50 under setting [1] is 15.8 µM [rising, single point] and the half-maximal activity concentration (AC50) under setting [2] is 22.4 µM [rising, single point].
Consider `COCCCNC(=O)c1ccc(Cn2c(SCc3cccc(C)c3)nc3cccnc32)cc1`, for which the AC50 under setting [1] is 0.00178 µM [falling, full curve].
Take `Cc1ccc(C)c(N2CCN(C(=O)c3cc(S(=O)(=O)N4CCCCCC4)cn3C)CC2)c1`: the AC50 under setting [2] is 14.1 µM [rising, single point].
As to `Cc1ccc(O)c(C(=O)c2cnc3c(c2)COc2ccccc2-3)c1`, the AC50 under setting [2] was 22.4 µM [rising, single point].
The same measure, in the same setting: in the case of `O=C(NCCc1nc(-c2ccccc2)cs1)c1ccc(Br)cc1` it was 22.4 µM [rising, single point].
The same measure, in the same setting: under `Cc1ccc2c(c1)cc(CN(Cc1ccco1)S(=O)(=O)c1ccccc1)c1nnnn12` stands 5.62 µM [rising, single point].
Same read-out and setting: under `O=C(NCc1ccccc1)/C(=C/c1ccc(OC(F)F)cc1)c1ccccc1` stands 22.4 µM [rising, single point]; under `CC(=O)CCCCn1c(=O)c2c(ncn2C)n(C)c1=O`, 5.62 µM [falling, single point].
As to `Cc1cc(C)n(CC(O)COc2c(C)cccc2C)n1` (centres undefined), the AC50 was 0.126 µM [falling, single point] under setting [1] and 0.316 µM [falling, full curve, poor fit] under setting [2].
On to `C/C(=N\OCC(=O)Nc1ccc(Br)cc1)c1cccs1`, for which, under setting [1], the concentration at half-maximal activity (AC50) was 2.82 µM [rising, partial curve].
Turning to `O=C(NCc1ccc2c(c1)OCO2)c1ccc(CSCc2ccc(Cl)cc2)o1`, under setting [2], the AC50 is 15.8 µM [rising, partial curve].
On to `O=C(Nc1ccc(F)cc1)N1CCN(C(=O)c2nsc3ccccc23)CC1`, for which the AC50 is, setting by setting: under setting [1], 0.794 µM [rising, full curve]; under setting [2], 0.794 µM [rising, full curve, poor fit].
Turning to `O=C1C(=O)c2ccc(-c3ccccc3)cc2-c2ccccc21`, the AC50 is 5.62 µM [falling, single point] under setting [1] and 5.62 µM [falling, single point] under setting [2].
`CCOC(=O)CSc1nnc2n(C3CCCCC3)c(=O)c3c4c(sc3n12)CCCC4`: the AC50 runs as follows: under setting [1], 5.62 µM [rising, single point]; under setting [2], 4.47 µM [rising, single point].
In the case of `COc1ccc(NC(=O)COC(=O)c2ccc(S(=O)(=O)N(C)c3ccccc3OC)cc2)c(OC)c1`, under setting [2], the half-maximal activity concentration (AC50) is 5.62 µM [rising, partial curve, poor fit].
The same measure, in the same setting: under `O=C(NC1CCCC1)C(c1ccncc1)N(Cc1ccco1)C(=O)c1ccc(-c2ccccc2)[nH]1` (centres undefined) stands 11.2 µM [falling, partial curve].
Turning to `COc1ccccc1CNC(=O)CN1C(=O)C(C)N(c2ccc(C)cc2)C1=O` (centres undefined), the half-maximal activity concentration (AC50) under setting [2] was 3.55 µM [rising, partial curve].
Regarding `COc1ccc(-n2ncc(C(=O)N3CCOCC3)c2C2CCN(C(=O)OC(C)(C)C)CC2)cc1`, the concentration at half-maximal activity (AC50) under setting [2] is 0.251 µM [falling, full curve, poor fit].
